Some of the results follow. Repeats are few or missing, and single values can be far off.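 Imaging used 1,536-well plates; nuclei positive for cleaved PARP by antibody were divided by total DNA-stained nuclei to yield the apoptosis fraction. Doses for screening kept most cells viable, and cell lines differ markedly in resting and induced cleaved-PARP levels.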
What was measured:
Test in all cases: cleaved PARP positive nuclei fraction relative to DMSO control; melanoma cells; higher = more apoptosis
Settings in all cases: library dose: low library concentration; 72 h
MZ2-MEL = system: MZ2-MEL
MeWo = system: MeWo
RPMI7951 = system: RPMI7951
RVH-421 = system: RVH-421
SkMel28 = system: SkMel28
SkMel2 = system: SkMel2
SkMel30 = system: SkMel30
SkMel5 = system: SkMel5
UACC257 = system: UACC257
UACC62 = system: UACC62
WM115 = system: WM115
WM1716 = system: WM1716
WM1745 = system: WM1745
WM3526 = system: WM3526
WM3619 = system: WM3619
WM451Lu = system: WM451Lu

Compound | cleaved PARP positive nuclei fraction (MZ2-MEL) | cleaved PARP positive nuclei fraction (MeWo) | cleaved PARP positive nuclei fraction (RPMI7951) | cleaved PARP positive nuclei fraction (RVH-421) | cleaved PARP positive nuclei fraction (SkMel28) | cleaved PARP positive nuclei fraction (SkMel2) | cleaved PARP positive nuclei fraction (SkMel30) | cleaved PARP positive nuclei fraction (SkMel5) | cleaved PARP positive nuclei fraction (UACC257) | cleaved PARP positive nuclei fraction (UACC62) | cleaved PARP positive nuclei fraction (WM115) | cleaved PARP positive nuclei fraction (WM1716) | cleaved PARP positive nuclei fraction (WM1745) | cleaved PARP positive nuclei fraction (WM3526) | cleaved PARP positive nuclei fraction (WM3619) | cleaved PARP positive nuclei fraction (WM451Lu)
O=C(O)c1ccc2c(c1)nc(Nc1cccc(Cl)c1)c1ccncc12 + NC(=O)Nc1cc(-c2cccc(F)c2)sc1C(=O)N[C@H]1CCCNC1 [AZD7762] (first compound 0.4 µM, partner dose 0.02 µM) | 66.4% | 65.3% | 160% | 72% | 96.6% | 108% | 60.2% | 58.7% | 156% | 56.7% | 128% | 306% | 85.6% | 164% | 84.4% | 64.8%
CS(=O)(=O)CCNCc1ccc(-c2ccc3ncnc(Nc4ccc(OCc5cccc(F)c5)c(Cl)c4)c3c2)o1 [lapatinib] + CCCCCCCCCCCC1=C(O)C(=O)C=C(O)C1=O [Embelin] (first compound 0.8 µM, partner dose 1.2 µM) | 60.2% | 36.9% | 34.7% | 93.9% | 218% | 114% | 168% | 74.1% | 175% | 113% | 76.4% | 33.1% | 89.6% | 77.2% | 96.7% | 33.2%
C[C@@H](Oc1cc(-c2cnn(C3CCNCC3)c2)cnc1N)c1c(Cl)ccc(F)c1Cl [Crizotinib] + O=C(CCCCCCC(=O)Nc1ccccc1)NO [vorinostat] (first compound 0.2 µM, partner dose 0.08 µM) | 53.9% | 77.6% | 45% | 92.3% | 124% | 119% | 63.8% | 138% | 101% | 102% | 124% | 97.9% | 96.6% | 62.7% | 73.3% | 134%
C[C@@H](Oc1cc(-c2cnn(C3CCNCC3)c2)cnc1N)c1c(Cl)ccc(F)c1Cl [Crizotinib] + O=c1cc(-c2cccc3c2Sc2ccccc2S3)oc(N2CCOCC2)c1 [KU55933] (first compound 0.2 µM, partner dose 1 µM) | 173% | 30.3% | 74% | 178% | 64.1% | 152% | 46.9% | 76.3% | 131% | 118% | 210% | 161% | 105% | 252% | 81% | 35.8%
Nc1nc(F)nc2c1ncn2[C@@H]1O[C@H](CO)[C@@H](O)[C@@H]1O [fludarabine] + OCCn1cc(-c2cnc3nnn(Cc4ccc5ncccc5c4)c3n2)cn1 [PF04217903] (first compound 0.2 µM, partner dose 1 µM) | 90% | 762% | 75.3% | 94% | 76.3% | 1280% | 365% | 998% | 542% | 277% | 185% | 170% | 97.5% | 327% | 110% | 430%
Nc1nc(F)nc2c1ncn2[C@@H]1O[C@H](CO)[C@@H](O)[C@@H]1O [fludarabine] + Cc1cc([N+](=O)[O-])ccc1NS(=O)(=O)c1cc(Cl)ccc1Cl [FH535] (first compound 0.2 µM, partner dose 1 µM) | 44.5% | 746% | 71.7% | 169% | 191% | 343% | 1890% | 219% | 104% | 102% | 28.3% | 54.5% | 97.7% | 388% | 104% | 127%
Nc1nc(F)nc2c1ncn2[C@@H]1O[C@H](CO)[C@@H](O)[C@@H]1O [fludarabine] + COc1ccc(COc2ccc(Cc3cnc(N)nc3N)cc2OC)cc1 [GW2580] (first compound 0.2 µM, partner dose 1 µM) | 112% | 361% | 133% | 45.5% | 81.4% | 995% | 224% | 197% | 179% | 53.9% | 123% | 54.4% | 86.5% | 197% | 98.2% | 70.3%
Nc1ccn([C@@H]2O[C@H](CO)[C@@H](O)C2(F)F)c(=O)n1 [gemcitabine] + Oc1cc(-c2nc(-c3ccccc3)[nH]c2-c2ccncc2)ccc1Cl [L779450] (first compound 0.0004 µM, partner dose 0.2 µM) | 156% | 112% | 169% | 67.4% | 150% | 239% | 73.6% | 32.5% | 171% | 237% | 84.3% | 38% | 147% | 76.3% | 150% | 45.2%
CS(=O)(=O)CCNCc1ccc(-c2ccc3ncnc(Nc4ccc(OCc5cccc(F)c5)c(Cl)c4)c3c2)o1 [lapatinib] + Cc1cc(N2CCOCC2)cc2[nH]c(-c3c(NC[C@@H](O)c4cccc(Cl)c4)cc[nH]c3=O)nc12 [BMS536924] (first compound 0.8 µM, partner dose 0.2 µM) | 120% | 293% | 35.9% | 84.6% | 91.4% | 124% | 69.4% | 62.7% | 45.4% | 329% | 138% | 96.7% | 123% | 125% | 100% | 98.7%

From the supplement of paper PMC4604168 (melanoma cell lines)
